Paper doi:10.1101/2025.08.11.669646

Amino acid sequences for entries named in this document (tags omitted). A change or cut given only in a name is not applied to a line headed by its entry. Chains listed by the source or under a name are the forms on record and can include a tag or linker.
FLAG-TurboID-SMNΔ7 (Q16637, form named): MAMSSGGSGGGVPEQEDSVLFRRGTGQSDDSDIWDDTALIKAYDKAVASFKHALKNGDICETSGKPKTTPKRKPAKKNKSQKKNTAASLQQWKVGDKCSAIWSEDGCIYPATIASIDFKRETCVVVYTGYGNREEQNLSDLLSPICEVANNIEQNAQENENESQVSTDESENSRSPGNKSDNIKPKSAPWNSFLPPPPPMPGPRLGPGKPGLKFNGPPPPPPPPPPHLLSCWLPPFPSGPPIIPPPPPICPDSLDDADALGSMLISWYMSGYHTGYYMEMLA
UniProt Q9H840: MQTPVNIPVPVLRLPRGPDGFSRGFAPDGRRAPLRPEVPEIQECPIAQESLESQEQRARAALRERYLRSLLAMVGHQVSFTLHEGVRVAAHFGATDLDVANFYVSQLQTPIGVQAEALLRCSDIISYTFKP
UniProt P18583: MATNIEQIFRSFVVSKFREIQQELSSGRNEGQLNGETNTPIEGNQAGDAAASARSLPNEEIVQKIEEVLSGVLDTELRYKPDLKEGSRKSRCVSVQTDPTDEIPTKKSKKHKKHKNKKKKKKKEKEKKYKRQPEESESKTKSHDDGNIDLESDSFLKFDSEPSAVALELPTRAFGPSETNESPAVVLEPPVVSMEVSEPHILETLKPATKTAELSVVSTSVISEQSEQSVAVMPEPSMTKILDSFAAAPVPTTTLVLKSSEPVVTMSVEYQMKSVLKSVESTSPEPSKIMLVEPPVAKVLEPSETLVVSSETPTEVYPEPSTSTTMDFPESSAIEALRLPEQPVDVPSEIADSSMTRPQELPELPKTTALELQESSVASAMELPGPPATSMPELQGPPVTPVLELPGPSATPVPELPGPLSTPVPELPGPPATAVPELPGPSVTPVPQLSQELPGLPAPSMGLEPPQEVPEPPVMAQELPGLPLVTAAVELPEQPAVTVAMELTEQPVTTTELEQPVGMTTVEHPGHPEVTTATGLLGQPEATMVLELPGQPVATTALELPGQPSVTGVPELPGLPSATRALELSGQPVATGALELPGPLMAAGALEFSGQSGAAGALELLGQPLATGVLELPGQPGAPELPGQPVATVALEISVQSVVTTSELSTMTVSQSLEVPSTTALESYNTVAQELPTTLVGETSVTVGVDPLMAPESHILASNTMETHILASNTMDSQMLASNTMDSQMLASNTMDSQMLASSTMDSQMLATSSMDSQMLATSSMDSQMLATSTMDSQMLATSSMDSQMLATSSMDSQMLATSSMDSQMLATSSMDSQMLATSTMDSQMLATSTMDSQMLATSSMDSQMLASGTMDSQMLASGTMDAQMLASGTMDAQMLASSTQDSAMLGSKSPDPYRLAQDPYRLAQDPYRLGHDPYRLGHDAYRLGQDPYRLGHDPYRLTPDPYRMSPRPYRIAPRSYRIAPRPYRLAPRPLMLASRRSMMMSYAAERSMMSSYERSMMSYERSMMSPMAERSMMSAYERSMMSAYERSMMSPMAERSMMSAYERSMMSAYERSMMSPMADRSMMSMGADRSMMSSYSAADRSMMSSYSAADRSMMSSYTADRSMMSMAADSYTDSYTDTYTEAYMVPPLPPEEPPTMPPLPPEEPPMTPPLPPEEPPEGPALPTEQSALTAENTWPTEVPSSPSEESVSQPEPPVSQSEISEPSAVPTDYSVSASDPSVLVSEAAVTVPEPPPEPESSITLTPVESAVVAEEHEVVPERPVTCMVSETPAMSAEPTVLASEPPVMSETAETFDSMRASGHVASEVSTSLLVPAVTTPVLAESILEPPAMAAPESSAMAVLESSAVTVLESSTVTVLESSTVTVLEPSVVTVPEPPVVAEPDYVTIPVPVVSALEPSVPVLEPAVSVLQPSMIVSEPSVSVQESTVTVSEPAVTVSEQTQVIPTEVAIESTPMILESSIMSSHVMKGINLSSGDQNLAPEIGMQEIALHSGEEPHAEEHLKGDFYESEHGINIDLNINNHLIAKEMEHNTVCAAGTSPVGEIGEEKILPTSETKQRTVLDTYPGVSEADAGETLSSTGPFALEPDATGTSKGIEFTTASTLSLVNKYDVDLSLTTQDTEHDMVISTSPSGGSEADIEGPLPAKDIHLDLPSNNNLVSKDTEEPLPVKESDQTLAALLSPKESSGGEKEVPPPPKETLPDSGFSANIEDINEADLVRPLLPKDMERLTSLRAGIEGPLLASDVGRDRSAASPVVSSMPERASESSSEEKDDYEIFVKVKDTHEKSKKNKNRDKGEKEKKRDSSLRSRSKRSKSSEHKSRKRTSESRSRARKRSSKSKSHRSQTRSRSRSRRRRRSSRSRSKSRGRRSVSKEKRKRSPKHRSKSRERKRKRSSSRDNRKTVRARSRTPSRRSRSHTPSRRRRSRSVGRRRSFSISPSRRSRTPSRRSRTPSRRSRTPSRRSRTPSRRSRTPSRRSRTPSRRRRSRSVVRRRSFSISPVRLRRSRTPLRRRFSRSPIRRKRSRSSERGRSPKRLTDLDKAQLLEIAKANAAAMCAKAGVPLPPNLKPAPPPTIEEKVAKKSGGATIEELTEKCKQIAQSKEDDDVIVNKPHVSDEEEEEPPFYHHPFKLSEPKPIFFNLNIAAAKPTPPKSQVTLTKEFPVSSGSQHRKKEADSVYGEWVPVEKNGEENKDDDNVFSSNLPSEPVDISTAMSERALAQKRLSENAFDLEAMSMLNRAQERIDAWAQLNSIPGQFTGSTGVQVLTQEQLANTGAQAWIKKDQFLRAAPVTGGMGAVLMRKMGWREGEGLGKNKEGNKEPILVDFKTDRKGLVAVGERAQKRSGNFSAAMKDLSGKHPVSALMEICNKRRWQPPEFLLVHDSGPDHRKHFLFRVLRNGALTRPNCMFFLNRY
UniProt P49848: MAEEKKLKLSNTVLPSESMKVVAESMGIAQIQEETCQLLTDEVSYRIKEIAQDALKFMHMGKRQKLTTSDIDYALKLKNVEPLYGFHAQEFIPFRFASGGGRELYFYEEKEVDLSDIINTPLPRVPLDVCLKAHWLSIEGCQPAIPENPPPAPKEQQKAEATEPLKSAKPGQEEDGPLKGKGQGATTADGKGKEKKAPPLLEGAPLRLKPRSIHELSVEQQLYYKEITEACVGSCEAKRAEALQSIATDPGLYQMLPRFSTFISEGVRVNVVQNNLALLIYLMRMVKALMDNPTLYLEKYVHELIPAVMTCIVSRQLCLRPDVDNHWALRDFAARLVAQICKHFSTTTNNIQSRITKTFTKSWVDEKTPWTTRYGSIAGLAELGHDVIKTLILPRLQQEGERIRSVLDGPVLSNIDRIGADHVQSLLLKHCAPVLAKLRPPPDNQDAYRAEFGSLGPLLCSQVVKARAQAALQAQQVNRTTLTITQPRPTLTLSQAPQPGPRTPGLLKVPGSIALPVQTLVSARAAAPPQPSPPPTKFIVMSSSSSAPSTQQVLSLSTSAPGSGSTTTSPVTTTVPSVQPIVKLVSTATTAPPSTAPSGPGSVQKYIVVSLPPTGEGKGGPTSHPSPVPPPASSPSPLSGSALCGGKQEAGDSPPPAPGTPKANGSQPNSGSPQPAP
UniProt P33176: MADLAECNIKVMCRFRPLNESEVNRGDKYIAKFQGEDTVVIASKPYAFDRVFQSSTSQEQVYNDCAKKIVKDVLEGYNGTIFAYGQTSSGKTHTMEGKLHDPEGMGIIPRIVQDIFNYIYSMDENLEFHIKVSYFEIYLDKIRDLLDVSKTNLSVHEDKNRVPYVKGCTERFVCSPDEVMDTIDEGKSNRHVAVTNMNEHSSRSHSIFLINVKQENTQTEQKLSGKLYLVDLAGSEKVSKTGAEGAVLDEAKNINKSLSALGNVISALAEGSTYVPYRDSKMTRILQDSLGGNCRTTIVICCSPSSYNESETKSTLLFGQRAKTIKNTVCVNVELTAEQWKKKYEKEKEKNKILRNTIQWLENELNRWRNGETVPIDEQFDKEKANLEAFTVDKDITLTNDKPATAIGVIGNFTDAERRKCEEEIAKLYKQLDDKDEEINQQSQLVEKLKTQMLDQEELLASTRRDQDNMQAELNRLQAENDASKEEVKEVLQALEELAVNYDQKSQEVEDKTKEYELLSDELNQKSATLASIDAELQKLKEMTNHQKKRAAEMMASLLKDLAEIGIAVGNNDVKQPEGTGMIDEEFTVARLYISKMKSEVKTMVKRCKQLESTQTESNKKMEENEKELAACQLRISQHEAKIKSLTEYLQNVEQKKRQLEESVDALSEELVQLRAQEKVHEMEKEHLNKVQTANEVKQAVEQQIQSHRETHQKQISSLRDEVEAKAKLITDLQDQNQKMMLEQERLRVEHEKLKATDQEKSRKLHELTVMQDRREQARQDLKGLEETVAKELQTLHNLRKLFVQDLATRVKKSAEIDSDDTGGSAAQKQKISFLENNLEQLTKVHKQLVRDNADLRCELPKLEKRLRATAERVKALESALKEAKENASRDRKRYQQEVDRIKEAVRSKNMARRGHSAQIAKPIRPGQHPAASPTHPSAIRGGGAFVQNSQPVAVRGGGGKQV
UniProt Q9BSJ2: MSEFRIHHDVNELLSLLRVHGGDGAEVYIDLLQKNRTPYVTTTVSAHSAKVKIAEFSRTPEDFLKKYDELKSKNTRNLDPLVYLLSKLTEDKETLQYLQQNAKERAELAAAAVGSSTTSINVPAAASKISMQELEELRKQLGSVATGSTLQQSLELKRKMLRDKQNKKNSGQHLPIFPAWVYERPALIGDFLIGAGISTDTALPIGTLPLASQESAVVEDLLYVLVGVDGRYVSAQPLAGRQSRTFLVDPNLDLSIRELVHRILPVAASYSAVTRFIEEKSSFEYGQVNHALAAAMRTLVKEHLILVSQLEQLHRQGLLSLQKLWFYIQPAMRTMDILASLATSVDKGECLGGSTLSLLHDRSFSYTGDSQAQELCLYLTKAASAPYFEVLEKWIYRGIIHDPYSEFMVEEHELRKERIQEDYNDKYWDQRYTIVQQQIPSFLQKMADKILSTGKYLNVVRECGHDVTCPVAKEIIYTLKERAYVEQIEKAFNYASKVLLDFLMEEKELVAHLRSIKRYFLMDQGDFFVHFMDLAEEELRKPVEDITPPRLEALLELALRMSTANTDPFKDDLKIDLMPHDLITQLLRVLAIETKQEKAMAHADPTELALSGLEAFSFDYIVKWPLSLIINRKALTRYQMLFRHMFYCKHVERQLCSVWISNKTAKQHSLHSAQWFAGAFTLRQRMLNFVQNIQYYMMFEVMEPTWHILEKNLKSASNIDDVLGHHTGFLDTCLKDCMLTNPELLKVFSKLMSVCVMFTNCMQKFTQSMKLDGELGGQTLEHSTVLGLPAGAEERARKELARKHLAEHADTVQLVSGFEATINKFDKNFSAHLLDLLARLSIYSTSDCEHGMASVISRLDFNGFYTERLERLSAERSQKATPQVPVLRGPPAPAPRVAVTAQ

Target: FLAG-TurboID-SMNΔ7 (human) (UniProt Q16637)
Test: proximity labelling

Row | Substance | binding
1 | DNAJC13 (from UniProt O75165 1-2243) | binds
2 | GEMIN7 (from UniProt Q9H840 1-131) | binds
3 | Protein SON (from UniProt P18583 1-2426) | binds
4 | TAF6 (from UniProt P49848 1-677) | binds

The next lines start with the values.

Row | binding | Substance
5 | binds | KIF5B (from UniProt P33176 1-963)
6 | binds | TUBGCP2 (from UniProt Q9BSJ2 1-902)

No constants are given. Whether binding was seen depends on the method and setting. Binding seen in cells or lysates may run through a third protein. A yes stands for co-enrichment or nearness to the bait. Other partners may have been found.
